Measurements as given in patent publication US5846742A, “Selecting substances for treating glucocorticoid-mediated inflammation or immune diseases using Tripterygium wilfordii Hook F extracts” (Board of Regents, The University of Texas System, priority 1997, dated 1998).

What follows are compounds tested on anti-cortisol antibody (assay: Cortisol RIA). Details: A ring-directed antibody, FIG. 28.
Type: binding

Which “Cortisol-like immunoreactivity of purified compounds” value (from here on “Cortisol-like immunoreactivity”) does the source give for `CC(C)[C@]12O[C@H]1[C@@H]1O[C@]13[C@]1(O[C@H]1C[C@H]1C4=C(CC[C@@]13C)C(=O)OC4)[C@@H]2O` [Triptolide, triptolide] here?
Its value is “fails to detect cortisol-like immunoreactivity”.

With `CC(C)c1ccc2c(c1O)CC[C@H]1C3=C(CC[C@]21C)C(=O)OC3` [Triptophenolide, triptophenolide] as the compound, how does the “Cortisol-like immunoreactivity” value read?
Its value is “may have low affinity immunoreactivity”.

How did the “Cortisol-like immunoreactivity” value turn out when `CC(C)[C@]12O[C@H]1[C@@H]1O[C@]13[C@]1(O[C@H]1C[C@H]1C4=C(C(=O)OC4)[C@@H](O)C[C@@]13C)[C@@H]2O` [Tripdiolide, tripdiolide] was run?
The value was “fails to detect cortisol-like immunoreactivity”.
